The text below walks through data of publication PMC3591284.

Chains of the proteins cited; added tags and fusions are not shown.
UniProt Q12873: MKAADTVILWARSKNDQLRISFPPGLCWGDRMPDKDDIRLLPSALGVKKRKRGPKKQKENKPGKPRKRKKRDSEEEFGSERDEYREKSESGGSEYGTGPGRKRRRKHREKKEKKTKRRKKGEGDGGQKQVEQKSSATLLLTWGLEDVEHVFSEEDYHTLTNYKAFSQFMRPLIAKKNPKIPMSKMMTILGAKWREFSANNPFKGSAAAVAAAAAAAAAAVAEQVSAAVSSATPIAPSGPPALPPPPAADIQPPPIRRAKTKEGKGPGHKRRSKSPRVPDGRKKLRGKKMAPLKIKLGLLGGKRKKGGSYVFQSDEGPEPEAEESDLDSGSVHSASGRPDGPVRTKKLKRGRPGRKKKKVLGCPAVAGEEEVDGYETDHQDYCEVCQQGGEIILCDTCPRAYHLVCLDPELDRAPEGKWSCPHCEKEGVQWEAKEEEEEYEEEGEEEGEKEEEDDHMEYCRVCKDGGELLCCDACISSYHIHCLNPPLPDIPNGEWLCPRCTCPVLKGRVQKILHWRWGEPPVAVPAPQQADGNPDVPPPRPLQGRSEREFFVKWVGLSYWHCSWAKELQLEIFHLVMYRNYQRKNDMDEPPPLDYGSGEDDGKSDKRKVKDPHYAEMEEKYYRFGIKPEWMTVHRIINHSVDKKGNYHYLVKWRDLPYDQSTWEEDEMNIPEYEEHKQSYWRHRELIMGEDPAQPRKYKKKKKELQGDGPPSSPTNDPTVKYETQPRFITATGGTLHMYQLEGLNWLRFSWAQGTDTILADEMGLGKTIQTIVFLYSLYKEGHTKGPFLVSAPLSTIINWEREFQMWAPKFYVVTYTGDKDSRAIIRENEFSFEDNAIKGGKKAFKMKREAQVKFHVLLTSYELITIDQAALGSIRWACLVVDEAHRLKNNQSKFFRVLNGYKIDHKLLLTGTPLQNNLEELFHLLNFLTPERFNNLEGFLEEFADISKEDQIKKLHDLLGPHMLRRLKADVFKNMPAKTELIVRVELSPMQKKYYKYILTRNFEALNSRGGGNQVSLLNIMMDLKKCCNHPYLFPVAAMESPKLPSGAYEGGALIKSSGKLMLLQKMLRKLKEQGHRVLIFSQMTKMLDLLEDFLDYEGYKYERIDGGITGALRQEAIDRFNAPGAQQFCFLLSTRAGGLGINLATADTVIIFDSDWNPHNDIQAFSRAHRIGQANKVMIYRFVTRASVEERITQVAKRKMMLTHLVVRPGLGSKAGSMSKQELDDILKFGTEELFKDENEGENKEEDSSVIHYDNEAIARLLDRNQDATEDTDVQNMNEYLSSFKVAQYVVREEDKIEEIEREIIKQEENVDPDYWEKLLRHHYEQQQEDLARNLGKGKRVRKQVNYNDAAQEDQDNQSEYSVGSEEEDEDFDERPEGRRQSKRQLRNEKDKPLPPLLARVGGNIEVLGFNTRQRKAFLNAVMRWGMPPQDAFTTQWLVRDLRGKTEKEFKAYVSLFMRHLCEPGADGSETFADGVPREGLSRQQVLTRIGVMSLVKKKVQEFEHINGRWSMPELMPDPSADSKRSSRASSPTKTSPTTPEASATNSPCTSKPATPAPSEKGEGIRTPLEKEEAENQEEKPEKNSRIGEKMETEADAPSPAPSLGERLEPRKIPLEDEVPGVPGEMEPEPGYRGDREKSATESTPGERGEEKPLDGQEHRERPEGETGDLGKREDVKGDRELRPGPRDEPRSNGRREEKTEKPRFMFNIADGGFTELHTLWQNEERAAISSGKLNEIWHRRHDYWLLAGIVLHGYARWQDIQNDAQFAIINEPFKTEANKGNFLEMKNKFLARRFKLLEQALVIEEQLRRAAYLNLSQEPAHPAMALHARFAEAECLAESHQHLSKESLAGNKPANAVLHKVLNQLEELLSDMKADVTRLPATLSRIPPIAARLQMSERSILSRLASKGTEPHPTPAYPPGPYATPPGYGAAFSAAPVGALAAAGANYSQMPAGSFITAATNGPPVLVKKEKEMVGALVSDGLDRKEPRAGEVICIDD

This experiment concerns the target T1, Protein arginine methyltransferase 4 (PRMT4), endogenous in HEK293 cells (human (endogenous in HEK293)) (UniProt Q86X55).
T1 sequence: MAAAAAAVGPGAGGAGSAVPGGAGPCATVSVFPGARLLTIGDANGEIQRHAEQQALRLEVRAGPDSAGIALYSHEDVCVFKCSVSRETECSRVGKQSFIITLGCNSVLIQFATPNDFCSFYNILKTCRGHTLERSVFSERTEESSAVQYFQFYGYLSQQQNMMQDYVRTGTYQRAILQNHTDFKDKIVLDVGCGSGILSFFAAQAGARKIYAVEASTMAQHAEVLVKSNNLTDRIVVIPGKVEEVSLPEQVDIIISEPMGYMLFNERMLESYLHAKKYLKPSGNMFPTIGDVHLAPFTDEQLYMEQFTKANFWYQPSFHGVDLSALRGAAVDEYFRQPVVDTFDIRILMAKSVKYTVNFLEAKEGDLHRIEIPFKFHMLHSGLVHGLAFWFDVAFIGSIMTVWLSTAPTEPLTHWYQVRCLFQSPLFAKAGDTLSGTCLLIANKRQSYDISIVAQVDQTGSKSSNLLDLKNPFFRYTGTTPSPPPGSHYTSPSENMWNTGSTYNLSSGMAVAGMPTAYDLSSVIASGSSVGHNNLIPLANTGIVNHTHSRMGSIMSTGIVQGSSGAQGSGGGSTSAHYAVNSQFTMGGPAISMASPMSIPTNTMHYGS
The experiment in a line: affinity purification with mass spectrometry; IP with polyclonal anti-PRMT4 antibodies from PRMT4-containing MonoQ fractions of HEK293 extract against a bead control; silver-stained bands excised, MALDI-TOF peptide mass fingerprint.

Results are given in words; binding and its absence hold for the method and conditions named. Binding seen in cells or lysates may run through a third protein. Here binding means that the protein was enriched with, or labelled near, the bait; the list need not be complete.

For “Mi2α, endogenous in HEK293 cells (from UniProt Q12873 1-2000) (enzyme)”, the binding entry is on record as “binds”.
